# Taken from: PubChem BioAssay AID504786 (Drosophila RNAi Screening Center, 2011)
# Test: 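Fly genes required for HIF-dependent transcription when hypoxia is mimicked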 (primary screen)
# System: Drosophila S2 cells with a stable HIF luciferase reporter
# Reagents: long dsRNA against Drosophila genes, about 0.2 µg dsRNA per well of a 384-well plate
# Duration: three days of knock-down, then 20 h of DFO before reading
# Challenge: desferrioxamine (DFO) at 100 µM, an iron chelator that mimics hypoxia, for 20 h
# Read-out: 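HIF reporter luminescence in cells given 100 µM DFO for 20 h, using the mouse ldh-a hypoxia-response element, scored as per-plate z-scores; higher means greater loss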
# Direction: z-score: higher = stronger loss of HIF reporter signal
# In all, the deposit lists about 21,000 reagents; shown is a random part of those that have a named target and a result. 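Primary screen; positive scores mean lost reporter signal, so the sign may be inverted from the usual convention.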 A plus sign joins genes that one reagent is predicted to hit. Further read-outs or replicates are left out here. No sequences are given here.
Gene,dsRNA,"z-score, replicate 1","z-score, replicate 2"
CG17258,DRSC00495,-0.2,-0.1
Ostgamma,DRSC03074,-0.1,0.1
Rx,DRSC03837,-0.5,-0.3
Rx,DRSC04652,-0.3,-0.5
CG9135,DRSC03144,-0.1,-0.1
CG40341 (retired record),DRSC01767,-0.4,0.1
CG40341 (retired record),DRSC03750,-0.5,-0.3
Dnai2,DRSC10575,-0.2,-0.1
Art8,DRSC02530,-0.3,-0.3
Hsp70Aa + Hsp70Ab,DRSC21246,0.6,0.9
CSN1b,DRSC11108,1.6,1.1
Gr32a,DRSC02400,-0.4,-0.4
stops,DRSC15095,-0.4,-0.5
stops,DRSC15096,-0.3,-0.6
stops,DRSC15097,-0.2,-0.3
CG7135,DRSC20026,-0.3,0.4
Alas,DRSC04044,0.1,-0.3
CG11018,DRSC06024,-0.3,-0.4
Rab8,DRSC11261,-0.5,-0.7
CG44001 + CG33995,DRSC00853,-0.5,-0.3
CG44001 + CG33995,DRSC02898,-0.1,-0.5
nebu,DRSC09807,-0.1,-0.2
nebu,DRSC09808,-0.3,-0.1
CG7916,DRSC01901,0,-0.3
Gyf,DRSC17202,-0.2,-0.5
CG31776,DRSC00716,-0.4,-0.4
CG16789,DRSC15155,-0.2,-0.5
shrb,DRSC07061,3.4,2.9
subdued,DRSC15137,-0.2,-0.1
udt,DRSC14214,-0.2,0.4
CG14285,DRSC14766,-0.2,-0.2
Traf-like,DRSC19894,-0.3,-0.5
Usp30,DRSC18265,-0.2,-0.5
TyrR,DRSC16242,0.4,0.8
CG7564,DRSC10880,-0.2,-0.1
ssp6,DRSC08791,-0.1,-0.4
ssp6,DRSC10677,0.3,0
PGRP-LE,DRSC20137,-0.2,-0.3
CG14262,DRSC14757,-0.3,-0.4
SREBP,DRSC11182,3.5,2.3
Pstk + CG14210 + Tim9b,DRSC19566,3.1,2.4
Sgp,DRSC02195,-0.3,-0.1
CG5112,DRSC15718,-0.2,-0.4
Karybeta3,DRSC12355,-0.3,-0.3
His2Av,DRSC16702,0,-0.2
CG13711,DRSC08320,-0.4,0.4
uno,DRSC07244,-0.4,-0.4
mRpL9,DRSC15678,1.8,2.4
CG13748,DRSC06419,-0.3,-0.1
sqz,DRSC16980,-0.8,-0.4
Cyp4d2,DRSC18458,-0.3,0.2
CG3457,DRSC18509,-0.3,-0.1
y,DRSC18853,-0.3,0.1
CG3119,DRSC00569,0.1,0.8
CG17217,DRSC02592,-0.3,-0.7
Ahcy,DRSC19329,0,0.3
CG14657,DRSC12219,-0.4,-0.5
CG14657,DRSC12243,-0.4,-0.1
CG17486,DRSC07752,-0.2,-0.7
kl-5 (retired record),DRSC20707,-0.1,0.4
kl-5 (retired record),DRSC20736,0.2,0.1
kl-5 (retired record),DRSC20773,-0.2,-0.2
kl-5 (retired record),DRSC21161,0,0
Cyp6u1,DRSC05015,-0.3,-0.5
mtSSB,DRSC17005,-0.5,-0.5
CG14961,DRSC08420,-0.2,0
Jhbp11,DRSC15183,-0.4,-0.5
CG14687,DRSC14910,-0.4,-0.8
Gcna,DRSC18553,-0.3,-0.3
Osi6,DRSC12128,-0.4,0.2
AP-2sigma,DRSC15957,0.7,-0.5
CG8419,DRSC03087,0,0
Dhpr,DRSC11135,-0.4,0
Fadd,DRSC14122,0.8,0
CG2127,DRSC06821,-0.3,-0.2
CG30431,DRSC04902,-0.4,-0.3
CG30431,DRSC04904,-0.1,-0.5
Usp1,DRSC14155,-0.3,-0.2
CG10513,DRSC14248,-0.2,0.2
Lrrk,DRSC15816,-0.9,0
CG9394,DRSC04550,-0.2,-0.1
Ssu72,DRSC19572,0.6,0.5
CG14545,DRSC14889,-0.3,-0.7
hid,DRSC11316,-0.2,0
CG6179,DRSC19973,-0.1,-0.3
stw,DRSC04842,-0.1,-0.3
stw,DRSC04843,-0.1,-0.4
CheB98a,DRSC14882,-0.5,-0.4
Saf6,DRSC00633,0.1,-0.2
CG14676,DRSC12262,0.1,0.1
morgue,DRSC00264,-0.2,-0.6
LysS,DRSC08677,-0.4,-0.9
CG18557,DRSC00524,-0.2,-0.3
CG34155,DRSC13991,-0.1,0.2
Ir41a,DRSC04730,0.1,-0.2
Ir41a,DRSC04875,-0.2,-0.5
CG6749,DRSC10704,-0.3,-0.4
rno,DRSC08584,0.1,-0.1
CG11668,DRSC14341,-0.5,-0.4
CG9406,DRSC04552,-0.2,-0.1
CG16894,DRSC06634,-0.4,-0.1
CG3600 (retired record),DRSC18599,-0.3,-0.5
Vmat + CG13330,DRSC06365,0.9,-0.6
CG15152,DRSC02453,-0.2,0.3
CG11703,DRSC14356,-0.2,-0.3
Agpat1,DRSC19879,-0.3,-0.4
Agpat1,DRSC19880,-0.4,-0.6
